Values quoted from earlier work in US12610948B2, “Choline chloride adjuvant for fatty acid based biopesticide” (Stratacor, Inc., priority 2020, dated 2026).
At least one structure is not confirmed: it was looked up by name or label, or the drawing left a doubt.

System: acetylcholine receptors
Settings: scale where acetylcholine is 100; Keyl et al., 1957; cited from earlier work

CC(=O)OCC[N+](C)(C)C [acetylcholine, Acetylcholine]
relative potency: 100
